Test results published in article doi:10.1101/2022.10.27.514000.
No constants are given. Whether binding was seen depends on the method and setting. Binding can be weak; no strength is given.

Molecular target: T1, Arabidopsis thaliana Exo70B1 protein (AtExo70B1) (Arabidopsis thaliana) (UniProt Q9FGH9)
T1 sequence: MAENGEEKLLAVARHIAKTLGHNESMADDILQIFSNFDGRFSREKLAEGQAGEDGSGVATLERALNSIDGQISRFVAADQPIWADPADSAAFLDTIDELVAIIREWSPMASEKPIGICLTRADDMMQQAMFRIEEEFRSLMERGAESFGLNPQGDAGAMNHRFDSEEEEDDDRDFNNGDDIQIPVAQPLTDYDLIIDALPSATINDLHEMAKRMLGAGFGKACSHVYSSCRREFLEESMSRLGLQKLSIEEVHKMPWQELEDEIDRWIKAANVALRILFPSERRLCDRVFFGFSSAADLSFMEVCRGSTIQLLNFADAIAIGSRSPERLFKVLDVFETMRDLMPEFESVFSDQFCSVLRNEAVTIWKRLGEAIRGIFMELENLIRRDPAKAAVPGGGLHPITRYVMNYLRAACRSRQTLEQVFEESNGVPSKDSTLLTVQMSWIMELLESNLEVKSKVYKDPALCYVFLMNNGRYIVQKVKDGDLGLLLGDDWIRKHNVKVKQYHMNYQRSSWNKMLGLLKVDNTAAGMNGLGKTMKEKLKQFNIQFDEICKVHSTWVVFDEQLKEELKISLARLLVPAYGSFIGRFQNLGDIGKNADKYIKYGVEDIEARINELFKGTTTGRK
Experiment: circular dichroism

- binding: binds
Substance: Xanthomonas campestris pv. campestris type three effector XopP (XccXopP)
